Values from PubChem BioAssay AID493246 (Drosophila RNAi Screening Center, 2011).
The screen tested about 21,000 reagents; this is a random part of those with a known target gene and a result. In the full data, 429 (2%) were called active. 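Values are raw and not normalised between plates; calls rest on per-plate z-scores that were not deposited.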 A number with no mark means an inactive call. Names joined by + are all predicted targets of the reagent. The record does not give: the amount of reagent, the time to read-out.

- Assay: 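Genes fly cells need to grow and stay alive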 (primary screen)
- Cells: Drosophila Kc and S2R+ cells
- Reagents: long dsRNA against Drosophila genes
- Detection: 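Cell number per well after knock-down, printed as raw plate values; calls were based on per-plate z-scores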
- Direction: Kc cell number and S2R+ cell number: higher = more cells remaining
- Hit rule: 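Counted as a hit if cell number falls by a z-score of at least 3 within its plate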

no.	predicted target	dsRNA	Kc cell number, rep 1	Kc cell number, rep 2	S2R+ cell number, rep 1	S2R+ cell number, rep 2
1	CheB53a	DRSC06625	1.49e6	1.53e6	1.18e6	1.28e6
2	Rlip	DRSC16828	1.25e6	1.41e6	1.06e6	1.08e6
3	Rab9Db + Rab9D + Rab9Fa + 1 more	DRSC17662	1.42e6	1.78e6	1.11e6	1.19e6
4	CG1428	DRSC03708	1.51e6	1.60e6	1.31e6	3.20e5
5	SmD3	DRSC07553	1.26e6	1.38e6	7.77e5	8.97e5
6	edin	DRSC09488	1.66e6	1.66e6	1.13e6	1.41e6
7	CG32221	DRSC09638	1.37e6	1.47e6	1.09e6	1.27e6
8	CG5693	DRSC02878	1.56e6	1.55e6	1.23e6	1.45e6
9	RpL12	DRSC04344	9.85e5 (active)	1.10e6	7.67e5	8.04e5
10	Rbcn-3B	DRSC18574	1.37e6	1.39e6	1.04e6	1.11e6
11	CG1394	DRSC19539	1.55e6	1.48e6	1.06e6	1.15e6
12	Npl4	DRSC15615	4.92e5		6.59e5	
13	Npl4	DRSC15616	1.54e6	1.50e6	1.00e6	1.09e6
14	CG16743	DRSC02514	1.68e6	1.64e6	1.14e6	1.21e6
15	PIP82	DRSC18694	1.74e6	1.77e6	1.14e6	1.29e6
16	Rhau	DRSC03200	1.10e6	1.27e6	8.91e5	6.94e5
17	asl	DRSC12319	1.65e6	1.77e6	1.27e6	1.36e6
18	Jhbp2	DRSC12292	1.85e6	2.02e6	1.28e6	1.32e6
19	RpL27A	DRSC00781	9.59e5 (active)	9.22e5	6.30e5	7.36e5
20	snk	DRSC17060	1.48e6	1.49e6	1.10e6	1.21e6
21	cv-2	DRSC03861	6.16e5		8.99e5	
22	cv-2	DRSC04261	1.63e6	1.66e6	1.27e6	2.91e5
23	Obp83g	DRSC12269	1.45e6	1.51e6	1.28e6	1.36e6
24	Moca-cyp	DRSC15364	5.69e5		8.92e5	
25	Pldn	DRSC10137	1.69e6	1.75e6	1.33e6	1.58e6
26	Ns4	DRSC03199	1.03e6	1.20e6	8.99e5	6.96e5
27	Dlic	DRSC19824	5.37e5		7.29e5	
28	in	DRSC11888	1.40e6	1.64e6	1.24e6	1.31e6
29	CG18605	DRSC06772	1.72e6	1.74e6	1.26e6	1.53e6
30	Fbl6	DRSC06335	1.35e6	1.40e6	1.08e6	1.10e6
31	Cyp12a4	DRSC16620	1.34e6	1.39e6	1.03e6	1.10e6
32	Ing5	DRSC03188	1.20e6	1.25e6	1.14e6	1.17e6
33	Obp56g	DRSC06432	1.59e6	1.63e6	1.13e6	1.32e6
34	CG15894	DRSC18098	1.45e6	1.42e6	1.07e6	1.14e6
35	CG15894	DRSC18099	1.40e6	1.43e6	8.20e5	9.10e5
36	CG42241 (retired record)	DRSC04007	1.46e6	1.45e6	9.95e5	1.06e6
37	CG12951	DRSC14579	1.72e6	1.64e6	1.26e6	1.36e6
38	l(2)05287	DRSC02151	1.46e6	1.50e6	9.29e5	9.91e5
39	l(2)05287	DRSC02152	1.50e6	1.61e6	1.20e6	4.18e5
40	unc-45	DRSC15449	1.29e6	1.34e6	1.35e6	1.43e6

Called active (from the list above):
predicted target	dsRNA	Kc cell number, rep 1	Kc cell number, rep 2	S2R+ cell number, rep 1	S2R+ cell number, rep 2
RpL12	DRSC04344	9.85e5 (active)	1.10e6	7.67e5	8.04e5
RpL27A	DRSC00781	9.59e5 (active)	9.22e5	6.30e5	7.36e5
